According to PMC6508495, “Members of the abscisic acid co‐receptor PP2C protein family mediate salicylic acid–abscisic acid crosstalk” (Plant Direct, 2017):
Results are given in words; binding and its absence hold for the method and conditions named. Some binding calls cover weakened binding; strength is not graded here.

By UniProt entry, the sequences of proteins in these tests, tags left out.
UniProt Q8VZS8: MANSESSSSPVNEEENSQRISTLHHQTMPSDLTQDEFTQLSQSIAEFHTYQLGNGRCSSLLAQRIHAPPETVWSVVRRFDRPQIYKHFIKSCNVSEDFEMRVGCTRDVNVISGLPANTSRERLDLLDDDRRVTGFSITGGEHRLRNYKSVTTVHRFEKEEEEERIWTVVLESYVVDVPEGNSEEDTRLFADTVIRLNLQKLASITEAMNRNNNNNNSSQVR
UniProt O49686: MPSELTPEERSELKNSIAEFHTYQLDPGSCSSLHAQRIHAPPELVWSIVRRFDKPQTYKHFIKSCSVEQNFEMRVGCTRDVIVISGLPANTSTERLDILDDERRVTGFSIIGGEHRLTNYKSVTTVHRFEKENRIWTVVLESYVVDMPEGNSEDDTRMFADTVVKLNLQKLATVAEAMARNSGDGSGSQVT
UniProt P49597: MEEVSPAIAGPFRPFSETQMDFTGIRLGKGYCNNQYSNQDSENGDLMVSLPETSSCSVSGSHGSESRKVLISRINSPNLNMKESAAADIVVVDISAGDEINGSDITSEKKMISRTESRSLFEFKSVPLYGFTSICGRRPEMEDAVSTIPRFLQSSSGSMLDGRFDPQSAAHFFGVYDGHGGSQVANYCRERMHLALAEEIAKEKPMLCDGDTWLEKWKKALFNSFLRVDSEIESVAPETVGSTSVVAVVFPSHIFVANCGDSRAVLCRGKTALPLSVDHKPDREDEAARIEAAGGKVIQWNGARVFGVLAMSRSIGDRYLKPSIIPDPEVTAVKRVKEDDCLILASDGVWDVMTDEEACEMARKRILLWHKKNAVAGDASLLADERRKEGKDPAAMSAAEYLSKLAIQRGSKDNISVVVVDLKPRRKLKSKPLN
UniProt O04719: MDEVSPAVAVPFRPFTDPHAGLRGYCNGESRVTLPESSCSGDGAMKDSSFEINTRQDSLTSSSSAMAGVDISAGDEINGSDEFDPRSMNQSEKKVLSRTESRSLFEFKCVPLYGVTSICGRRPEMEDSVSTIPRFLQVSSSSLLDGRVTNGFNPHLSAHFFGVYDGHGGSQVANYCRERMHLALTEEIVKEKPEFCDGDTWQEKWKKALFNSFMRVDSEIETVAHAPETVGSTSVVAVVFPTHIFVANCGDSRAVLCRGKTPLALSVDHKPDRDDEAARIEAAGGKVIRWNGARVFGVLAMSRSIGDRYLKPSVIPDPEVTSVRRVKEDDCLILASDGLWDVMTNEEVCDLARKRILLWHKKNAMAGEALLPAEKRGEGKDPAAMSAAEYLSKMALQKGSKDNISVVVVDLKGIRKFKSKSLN

T1: PYL2, ABA receptor of the PYR/PYL/RCAR family (UniProt O80992)
T1 sequence: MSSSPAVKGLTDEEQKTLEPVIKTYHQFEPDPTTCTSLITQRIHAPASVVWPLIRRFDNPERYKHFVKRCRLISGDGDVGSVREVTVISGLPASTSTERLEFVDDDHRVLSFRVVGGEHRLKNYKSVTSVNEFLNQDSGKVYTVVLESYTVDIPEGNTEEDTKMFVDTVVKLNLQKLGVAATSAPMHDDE

B1: PP2C‐D4 (At3g55050), type 2C protein phosphatase of clade D (enzyme, UniProt Q94CL8 1-384)
chain: MVSTTFRRIVSPCWRPFGIGEDSSPGSDDTNGRLDGLLWYKDSGNHITGEFSMAVVQANNLLEDHSQLESGPISLHESGPEATFVGVYDGHGGPEAARFVNDRLFYNIKRYTSEQRGMSPDVITRGFVATEEEFLGLVQEQWKTKPQIASVGACCLVGIVCNGLLYVANAGDSRVVLGKVANPFKELKAVQLSTEHNASIESVREELRLLHPDDPNIVVLKHKVWRVKGIIQVSRSIGDAYLKRAEFNQEPLLPKFRVPERFEKPIMRAEPTITVHKIHPEDQFLIFASDGLWEHLSNQEAVDIVNSCPRNGVARKLVKAALQEAAKKREMRYSDLEKIERGIRRHFHDDITVIVVFLHATNFATRTPISVKGGGLLSAHNPVL

How the values were obtained:
Assay in all cases: SPR; Biacore 3000; His6-SUMO-tagged PYL1, PYL2 or PYR1 amine-coupled to a CM5 chip; PP2Cs flowed over in HBS-EP buffer at 30 μl/min in the absence or presence of ABA, SA or ABA+SA; signal of the mock-coupled flow cell subtracted; both purified
[1] = target: PYL1, ABA receptor of the PYR/PYL/RCAR family (UniProt Q8VZS8)
[2] = target: T1, PYL2, ABA receptor of the PYR/PYL/RCAR family
[3] = target: PYR1 (pyrabactin resistance 1), ABA receptor of the PYR/PYL/RCAR family (UniProt O49686)

Molecule	binding [1]	binding [2]	binding [3]
ABA‐insensitive 1 (ABI1; At4g26080) (from UniProt P49597 1-434) (enzyme)	binds	binds	binds
ABA‐insensitive 2 (ABI2; At5g57050) (from UniProt O04719 1-423) (enzyme)	binds		binds
B1	binds	binds	binds
